Like-named read-outs stand apart in the source and are kept apart here. Results are given in words; binding and its absence hold for the method and conditions named. In cells and extracts the contact can be indirect. A yes stands for co-enrichment or nearness to the bait. Other partners may have been found.
Assays:
Assay in all cases: affinity purification with mass spectrometry; immunoprecipitates of anti-YAP and anti-TFCP2 antibodies from Bel-7402 cells; gel bands digested with trypsin, Nano-LC ESI-QTOF-MS, MASCOT against Swiss-Prot
[1] = molecular target: Yes-associated protein (YAP), endogenous (human (endogenous in Bel-7402 and SMMC-7721)) (UniProt P46937)
[2] = molecular target: T1, transcription factor CP2 (TFCP2), endogenous (human (endogenous in Bel-7402 and SMMC-7721)) (UniProt Q12800)
T1 sequence: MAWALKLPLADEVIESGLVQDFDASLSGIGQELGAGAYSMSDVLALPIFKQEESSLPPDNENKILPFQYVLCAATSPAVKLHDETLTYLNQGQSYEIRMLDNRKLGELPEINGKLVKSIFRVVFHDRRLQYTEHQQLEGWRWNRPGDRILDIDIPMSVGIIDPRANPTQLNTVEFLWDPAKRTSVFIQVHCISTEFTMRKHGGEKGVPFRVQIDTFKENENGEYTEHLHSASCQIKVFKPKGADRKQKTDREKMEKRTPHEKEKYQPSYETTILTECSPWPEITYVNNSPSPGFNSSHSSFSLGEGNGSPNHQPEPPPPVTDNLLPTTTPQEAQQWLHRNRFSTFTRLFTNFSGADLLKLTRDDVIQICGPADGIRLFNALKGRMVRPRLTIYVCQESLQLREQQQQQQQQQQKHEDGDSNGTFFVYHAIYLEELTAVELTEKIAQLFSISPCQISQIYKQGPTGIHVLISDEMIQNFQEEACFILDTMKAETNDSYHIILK

Protein sequences, listed by entry. Tags and fused reporters are not part of them.
UniProt P11142: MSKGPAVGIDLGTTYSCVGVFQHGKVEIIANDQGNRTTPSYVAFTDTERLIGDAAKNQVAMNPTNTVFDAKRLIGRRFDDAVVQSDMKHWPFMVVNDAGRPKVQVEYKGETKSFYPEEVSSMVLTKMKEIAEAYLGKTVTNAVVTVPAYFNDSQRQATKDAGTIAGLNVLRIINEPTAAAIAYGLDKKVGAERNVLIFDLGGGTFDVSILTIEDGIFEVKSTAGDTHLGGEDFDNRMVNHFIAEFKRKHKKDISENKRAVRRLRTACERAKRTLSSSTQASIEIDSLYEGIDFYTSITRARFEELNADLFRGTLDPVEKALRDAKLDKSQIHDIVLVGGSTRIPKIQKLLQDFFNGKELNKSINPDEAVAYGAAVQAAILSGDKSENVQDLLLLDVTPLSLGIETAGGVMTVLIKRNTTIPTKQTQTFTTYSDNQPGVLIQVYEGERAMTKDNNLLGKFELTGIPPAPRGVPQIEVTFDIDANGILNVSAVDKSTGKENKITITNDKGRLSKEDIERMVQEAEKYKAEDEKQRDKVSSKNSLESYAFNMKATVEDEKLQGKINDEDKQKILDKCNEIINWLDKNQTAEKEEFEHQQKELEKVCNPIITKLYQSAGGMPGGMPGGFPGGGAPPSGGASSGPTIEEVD

[3] = molecular target: Yes-associated protein (YAP), endogenous (human (endogenous in Bel-7402 and SMMC-7721)) (UniProt P46937); remark: listed apart in the source
[4] = molecular target: T1, transcription factor CP2 (TFCP2), endogenous (human (endogenous in Bel-7402 and SMMC-7721)); remark: listed apart in the source

Question: For “p53, endogenous (from UniProt P04637 1-393)”, which binding [1] is on record?
Answer: binds

Question: And the binding [2]?
Answer: binds

Question: How did the binding [1] turn out when “VCP, endogenous (from UniProt P55072 1-806)” was run?
Answer: binds

Question: What about the binding [2] of the same molecule?
Answer: binds

Question: “HSPA8, endogenous (from UniProt P11142 1-646)” was tested. Which binding [2] did it give?
Answer: binds

B1: CCT2, endogenous (protein, UniProt P78371 1-535)
chain: MASLSLAPVNIFKAGADEERAETARLTSFIGAIAIGDLVKSTLGPKGMDKILLSSGRDASLMVTNDGATILKNIGVDNPAAKVLVDMSRVQDDEVGDGTTSVTVLAAELLREAESLIAKKIHPQTIIAGWREATKAAREALLSSAVDHGSDEVKFRQDLMNIAGTTLSSKLLTHHKDHFTKLAVEAVLRLKGSGNLEAIHIIKKLGGSLADSYLDEGFLLDKKIGVNQPKRIENAKILIANTGMDTDKIKIFGSRVRVDSTAKVAEIEHAEKEKMKEKVERILKHGINCFINRQLIYNYPEQLFGAAGVMAIEHADFAGVERLALVTGGEIASTFDHPELVKLGSCKLIEEVMIGEDKLIHFSGVALGEACTIVLRGATQQILDEAERSLHDALCVLAQTVKDSRTVYGGGCSEMLMAHAVTQLANRTPGKEAVAMESYAKALRMLPTIIADNAGYDSADLVAQLRAAHSEGNTTAGLDMREGTIGDMAILGITESFQVKRQVLLSAAEAAEVILRVDNIIKAAPRKRVPDHHPC
Question: For B1, which binding [3] is on record?
Answer: binds

Question: And the binding [4]?
Answer: binds

Source: article PMC6733791
